From PubChem BioAssay AID1508600 (Functional Genomics Laboratory (NCATS/FGL), 2020) come the findings set out here.

Out of some 53,000 sequences screened, about 3,700 (7%) were called active.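 The calls were made as follows: active = gene knockdowns whose robust z-score for IL-1 alpha signal is at least 2 or at most -2, so actives lie on both sides; inactive = the rest.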 The list shows a part of the results.

A short description of this assay: Components of the Cytosolic LPS Sensing Pathway: Gene Identification via Genome-wide siRNA Screen.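 Also: robust z of the log signal after scaling to non-targeting control siRNA wells of the plate.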 Conditions: RAW264.7 macrophages, IL-1a HTRF, actives lie on both sides, screened at 100 nM (by protocol), cells primed 5 h with Pam3CSK4 first. The method, boiled down:
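Mouse macrophage line RAW264.7 is transfected with siRNA (100 nM final), grown 48h, primed with TLR ligand Pam3CSK4 5 h and given intracellular LipidA 24 h. IL-1a in supernatant is read by HTRF and viability by luminescence.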
As for GGAAUUGAUCACUAACCCUTT against Adgre5, the z-score was inactive: 1.07. Under CCCAUGUCGUGACAUCACATT against Slc26a7 stands active: -2.93; under GGAGCAGUUUGAACGAAUCTT against Aldh1b1, inactive: -0.334.

Consider GGCCAGCAAAACAAAUGACTT against Slc34a2, for which the z-score is inactive: -1.01. For GGUCAUUUUGGGAUAUCAGTT against Lman1, the z-score was inactive: -1.19. Under GGAAAUCUGAUGUGGAAAGTT against Med14 stands inactive: -0.97; under GGAUGACCAACAUUUUACATT against Ptprf, inactive: -0.261. As for GGGAAUUUGCUCCUGAAGGTT against Pcdhb8, the z-score is inactive: -0.781.

For GGCACAGGUUAGAUGAGAGTT against Sarm1, the z-score was inactive: 0.33. For “CCACCAUGUAUCUUUGAGUTT against 1700123O20Rik”, the z-score is inactive: -0.257.

Turning to CGGAACAAAUGUCUUGGGCTT against Kcnrg, the z-score is inactive: 0.347. With GGUUUAACUUUAAUGAUGGTT against Cacna1e the figure was inactive: -1.39; with GGAUGUAACAUUUCUUCAATT against Rmi1, inactive: 0.567; with GGUGUUUGCCUCAGAAAUCTT against Cdk17, inactive: -0.676. With GCAGGUGGUUAUCAACUGUTT against Vasp the figure was inactive: -0.588; with GGUCCUGUUGGAGAUGAUATT against Ube2d2a, inactive: -0.412.

Take GGAAUUUUAACACCUUUAGTT against Twist1: the z-score was inactive: 1.6. With GGAAGAAGAGUUCAAAGAATT against Srrm2 the figure was inactive: -0.606; with GGUGCUACUGGAAGAAGGGTT against Ubl4a, inactive: 0.984. For GGAAAAAUUUUGGAUUCAGTT against Hmgxb4, the z-score was inactive: 0.309. With GGAAAUUGUGGACAUGAUCTT against Sult1c1, the z-score is active: -3.27. In the case of GGUUUUUGGAUUCAAAGCATT against Pten, the z-score was inactive: -0.703. As to GGCUUGCUGAUUAAAGAUGTT against Strbp, the z-score is inactive: -0.544. GGGAGGACAGGUUCCUUAATT against Ndufa9: the z-score was inactive: 1.86. GGCUAUGCAUACAUAUAAATT against Slc24a2: the z-score is inactive: -0.338.

In the case of GGAAGAAGAAAGAUUCAAATT against Bcan, the z-score is inactive: -0.862. On to GCAUGGACAGUUAUGUAUATT against Slc5a6, for which the z-score was inactive: -0.207. With GGAGAUUGAUGAGCAUGCCTT against Rab40b, the z-score is active: -2.15. Regarding GGAUACAAGAUACCAUUGATT against Slc27a2, the z-score is inactive: -0.412. Take GGAAAAAGCAAUCAGACACTT against Pdcd7: the z-score is inactive: -0.862. As for GGUGUGUAACAAGGCCUUCTT against Ovol2, the z-score was inactive: -1.21. Regarding GCUUCCAGUCAGUGGUUACTT against Rara, the z-score is inactive: 1.07. Turning to GGCCAAGAAUGAGCCAGUATT against Lrp1, the z-score is inactive: 0.452.

Turning to GGAUAAAAAUCACCCACUGTT against Vwa8, the z-score is inactive: 0.21. Under GCAGGUUAUGGUCAUAUUUTT against Zfp646 stands inactive: 0.583. Under GGGAAGAAACAAAGCUUUUTT against Olfr267 stands inactive: 0.538; under GGAAUUUGAUGAGGAUUUGTT against Septin3, inactive: 1.2. Regarding CCCUACUGUUAUUCAAACCTT against Rhoj, the z-score is inactive: 0.45. For GCACUGGAAGGCCAAUUAGTT against Fancb, the z-score is inactive: 0.35.

GGUGCAUUCUUAGUAUACUTT against Pgap1: the z-score was inactive: -1.67. On to GGGUAUAAGAAAACUGGCATT against Rad18, for which the z-score is inactive: 0.721. With CCUACUGUACCAGUAAAGUTT against Dzip1, the z-score was inactive: 0.00188.

GGAGAGUUGGGACUAUGCATT against Cd37: the z-score is inactive: -0.613. Regarding GGAAGAUCAGCCAUACUAGTT against Klrb1f, the z-score was active: 2.12. As for CUCAACAUUCUCUAAACAUTT against Zfp708, the z-score is inactive: -0.0612.

On to GGGACAAGUUGGAUUCUUGTT against Polr1e, for which the z-score is inactive: -0.96.

With GGAGCACUAUGAUGAGUUCTT against U2af1, the z-score is inactive: -0.452. Under CCUUGAUCUACAUAGAACCTT against Olfr177 stands inactive: 0.338; under CCGGUUUAUGUCCUCUAUATT against Slc8a1, inactive: 0.25.

Consider CCACACAGUUAAUUGAAAUTT against Nsun2, for which the z-score is inactive: -0.541. Under GUGAGUUCGAAAAGGGAAUTT against Arap2 stands inactive: 0.33.

For GGAUCUUGAUCUUAGGACATT against Vwa7, the z-score is inactive: 0.724. As to AUGGAUGCAAGAGCUUGAUTT against Maml3, the z-score is inactive: 0.107.

In the case of GGGCAAAAUACAAAAGGAGTT against Mlph, the z-score was inactive: -0.9. With GGAAAUGAAUUUUGGAAUCTT against Inpp5k, the z-score was inactive: -0.271. For the sequence CCCUUUUUUUUCUAGCACCTT against Gjd4, the z-score is inactive: 0.97. Take CCUUGUCGAGCACAUGAGATT against Zfp69: the z-score was inactive: 0.0825. Under GGGCAGUUUUACUUUGUAATT against Golga2 stands inactive: -1.75; under GCAGCAGUGUUCACCAAAATT against Aldh1a3, inactive: -0.73.

As to CCAUGAAACUUAAAAUCCUTT against Tmem30b, the z-score is inactive: -0.392. For the sequence GCUUCUCCUCUUUGGAUUATT against Olfr866, the z-score was inactive: 1.05. For GGGAGAAAAGGGUCAAAAATT against Marco, the z-score is inactive: 0.819. Regarding GGCGAGCAUGAUCAUCCCATT against Gcm1, the z-score was inactive: -0.697.

Turning to GGCAUCCAAUGAUUACAAATT against Ubash3a, the z-score was inactive: 0.351. In the case of GCAAUUUGGAACACCUAAGTT against Fam76b, the z-score is inactive: 1.97.

Take GUGUGGUCACCAUUGUCCUTT against Ptprcap: the z-score was inactive: 1.7. For the sequence CCUGUAUUUUACGAUCUUUTT against Best1, the z-score is inactive: 0.103. With CCCUUUGAUAUGAAGUCAATT against Copg2 the figure was inactive: -0.737.
